Assay results: article doi:10.1101/2025.06.30.662258

The chains behind the UniProt entries cited, without tags or fusion partners.
UniProt Q99496: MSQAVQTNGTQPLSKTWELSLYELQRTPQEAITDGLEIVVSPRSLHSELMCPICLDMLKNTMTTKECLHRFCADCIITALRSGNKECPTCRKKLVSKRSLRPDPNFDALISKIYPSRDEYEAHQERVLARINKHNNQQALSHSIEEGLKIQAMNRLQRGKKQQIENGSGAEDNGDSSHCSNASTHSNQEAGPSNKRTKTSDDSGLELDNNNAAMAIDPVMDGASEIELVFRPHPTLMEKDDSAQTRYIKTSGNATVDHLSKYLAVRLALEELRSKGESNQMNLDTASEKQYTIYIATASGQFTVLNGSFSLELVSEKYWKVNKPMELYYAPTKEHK
UniProt P35226: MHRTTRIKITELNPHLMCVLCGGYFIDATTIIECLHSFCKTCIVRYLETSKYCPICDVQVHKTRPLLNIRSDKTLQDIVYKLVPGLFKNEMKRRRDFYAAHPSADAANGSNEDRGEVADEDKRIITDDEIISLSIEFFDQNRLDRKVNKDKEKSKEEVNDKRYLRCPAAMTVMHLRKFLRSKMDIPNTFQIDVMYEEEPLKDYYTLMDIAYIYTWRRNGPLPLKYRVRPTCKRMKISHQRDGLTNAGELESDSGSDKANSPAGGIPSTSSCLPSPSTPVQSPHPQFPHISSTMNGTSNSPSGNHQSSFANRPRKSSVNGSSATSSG

T1: Fibrillarin (FBL) (UniProt P22087)
T1 sequence: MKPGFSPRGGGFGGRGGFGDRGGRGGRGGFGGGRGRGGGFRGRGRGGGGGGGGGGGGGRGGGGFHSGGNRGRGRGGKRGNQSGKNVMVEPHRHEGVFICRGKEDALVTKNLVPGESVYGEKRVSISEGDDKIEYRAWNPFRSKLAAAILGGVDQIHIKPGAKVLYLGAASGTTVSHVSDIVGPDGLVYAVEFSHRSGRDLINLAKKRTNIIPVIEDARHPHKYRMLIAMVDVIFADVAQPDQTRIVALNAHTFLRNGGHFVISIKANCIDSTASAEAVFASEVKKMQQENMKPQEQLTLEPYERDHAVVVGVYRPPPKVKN

B1: USP36 (Ubiquitin-Specific Protease 36) (enzyme, UniProt Q9P275 1-1123)
chain: MPIVDKLKEALKPGRKDSADDGELGKLLASSAKKVLLQKIEFEPASKSFSYQLEALKSKYVLLNPKTEGASRHKSGDDPPARRQGSEHTYESCGDGVPAPQKVLFPTERLSLRWERVFRVGAGLHNLGNTCFLNATIQCLTYTPPLANYLLSKEHARSCHQGSFCMLCVMQNHIVQAFANSGNAIKPVSFIRDLKKIARHFRFGNQEDAHEFLRYTIDAMQKACLNGCAKLDRQTQATTLVHQIFGGYLRSRVKCSVCKSVSDTYDPYLDVALEIRQAANIVRALELFVKADVLSGENAYMCAKCKKKVPASKRFTIHRTSNVLTLSLKRFANFSGGKITKDVGYPEFLNIRPYMSQNNGDPVMYGLYAVLVHSGYSCHAGHYYCYVKASNGQWYQMNDSLVHSSNVKVVLNQQAYVLFYLRIPGSKKSPEGLISRTGSSSLPGRPSVIPDHSKKNIGNGIISSPLTGKRQDSGTMKKPHTTEEIGVPISRNGSTLGLKSQNGCIPPKLPSGSPSPKLSQTPTHMPTILDDPGKKVKKPAPPQHFSPRTAQGLPGTSNSNSSRSGSQRQGSWDSRDVVLSTSPKLLATATANGHGLKGNDESAGLDRRGSSSSSPEHSASSDSTKAPQTPRSGAAHLCDSQETNCSTAGHSKTPPSGADSKTVKLKSPVLSNTTTEPASTMSPPPAKKLALSAKKASTLWRATGNDLRPPPPSPSSDLTHPMKTSHPVVASTWPVHRARAVSPAPQSSSRLQPPFSPHPTLLSSTPKPPGTSEPRSCSSISTALPQVNEDLVSLPHQLPEASEPPQSPSEKRKKTFVGEPQRLGSETRLPQHIREATAAPHGKRKRKKKKRPEDTAASALQEGQTQRQPGSPMYRREGQAQLPAVRRQEDGTQPQVNGQQVGCVTDGHHASSRKRRRKGAEGLGEEGGLHQDPLRHSCSPMGDGDPEAMEESPRKKKKKKRKQETQRAVEEDGHLKCPRSAKPQDAVVPESSSCAPSANGWCPGDRMGLSQAPPVSWNGERESDVVQELLKYSSDKAYGRKVLTWDGKMSAVSQDAIEDSRQARTETVVDDWDEEFDRGKEKKIKKFKREKRRNFNAFQKLQTRRNFWSVTHPAKAASLSYRR

Tests used:
[1] = target: T1, Fibrillarin (FBL); assay: affinity purification with mass spectrometry
[2] = target: T1, Fibrillarin (FBL); assay: affinity purification with mass spectrometry; remark: listed apart in the source

Molecule	binding [1]	binding [2]
RING1B (from UniProt Q99496 1-336)	binds	
BMI1 (from UniProt P35226 1-326)	binds	
B1		binds

Like-named read-outs stand apart in the source and are kept apart here. No constants are given. Whether binding was seen depends on the method and setting. In cells and extracts the contact can be indirect. A yes stands for co-enrichment or nearness to the bait. Other partners may have been found.
